No constants are given. Whether binding was seen depends on the method and setting. Binding seen in cells or lysates may run through a third protein.
How the values were obtained:
[1] = molecular target: T1, ERCC1 (human (endogenous in HeLa)) (UniProt P07992); experiment: co-IP; co-immunoprecipitation using the ERCC1 or the ZFC3H1 antibody; cells, buffer and conditions not told; no figure shown
T1 sequence: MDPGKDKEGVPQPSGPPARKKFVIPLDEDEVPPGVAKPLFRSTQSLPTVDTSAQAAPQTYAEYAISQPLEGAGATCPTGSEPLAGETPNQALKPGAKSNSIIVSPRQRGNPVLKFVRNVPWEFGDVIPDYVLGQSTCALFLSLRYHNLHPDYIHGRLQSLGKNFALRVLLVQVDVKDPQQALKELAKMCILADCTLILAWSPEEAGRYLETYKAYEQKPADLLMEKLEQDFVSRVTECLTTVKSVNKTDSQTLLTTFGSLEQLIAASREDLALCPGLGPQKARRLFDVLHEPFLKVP

Protein sequences, listed by entry. Tags and fused reporters are not part of them.
UniProt O60293: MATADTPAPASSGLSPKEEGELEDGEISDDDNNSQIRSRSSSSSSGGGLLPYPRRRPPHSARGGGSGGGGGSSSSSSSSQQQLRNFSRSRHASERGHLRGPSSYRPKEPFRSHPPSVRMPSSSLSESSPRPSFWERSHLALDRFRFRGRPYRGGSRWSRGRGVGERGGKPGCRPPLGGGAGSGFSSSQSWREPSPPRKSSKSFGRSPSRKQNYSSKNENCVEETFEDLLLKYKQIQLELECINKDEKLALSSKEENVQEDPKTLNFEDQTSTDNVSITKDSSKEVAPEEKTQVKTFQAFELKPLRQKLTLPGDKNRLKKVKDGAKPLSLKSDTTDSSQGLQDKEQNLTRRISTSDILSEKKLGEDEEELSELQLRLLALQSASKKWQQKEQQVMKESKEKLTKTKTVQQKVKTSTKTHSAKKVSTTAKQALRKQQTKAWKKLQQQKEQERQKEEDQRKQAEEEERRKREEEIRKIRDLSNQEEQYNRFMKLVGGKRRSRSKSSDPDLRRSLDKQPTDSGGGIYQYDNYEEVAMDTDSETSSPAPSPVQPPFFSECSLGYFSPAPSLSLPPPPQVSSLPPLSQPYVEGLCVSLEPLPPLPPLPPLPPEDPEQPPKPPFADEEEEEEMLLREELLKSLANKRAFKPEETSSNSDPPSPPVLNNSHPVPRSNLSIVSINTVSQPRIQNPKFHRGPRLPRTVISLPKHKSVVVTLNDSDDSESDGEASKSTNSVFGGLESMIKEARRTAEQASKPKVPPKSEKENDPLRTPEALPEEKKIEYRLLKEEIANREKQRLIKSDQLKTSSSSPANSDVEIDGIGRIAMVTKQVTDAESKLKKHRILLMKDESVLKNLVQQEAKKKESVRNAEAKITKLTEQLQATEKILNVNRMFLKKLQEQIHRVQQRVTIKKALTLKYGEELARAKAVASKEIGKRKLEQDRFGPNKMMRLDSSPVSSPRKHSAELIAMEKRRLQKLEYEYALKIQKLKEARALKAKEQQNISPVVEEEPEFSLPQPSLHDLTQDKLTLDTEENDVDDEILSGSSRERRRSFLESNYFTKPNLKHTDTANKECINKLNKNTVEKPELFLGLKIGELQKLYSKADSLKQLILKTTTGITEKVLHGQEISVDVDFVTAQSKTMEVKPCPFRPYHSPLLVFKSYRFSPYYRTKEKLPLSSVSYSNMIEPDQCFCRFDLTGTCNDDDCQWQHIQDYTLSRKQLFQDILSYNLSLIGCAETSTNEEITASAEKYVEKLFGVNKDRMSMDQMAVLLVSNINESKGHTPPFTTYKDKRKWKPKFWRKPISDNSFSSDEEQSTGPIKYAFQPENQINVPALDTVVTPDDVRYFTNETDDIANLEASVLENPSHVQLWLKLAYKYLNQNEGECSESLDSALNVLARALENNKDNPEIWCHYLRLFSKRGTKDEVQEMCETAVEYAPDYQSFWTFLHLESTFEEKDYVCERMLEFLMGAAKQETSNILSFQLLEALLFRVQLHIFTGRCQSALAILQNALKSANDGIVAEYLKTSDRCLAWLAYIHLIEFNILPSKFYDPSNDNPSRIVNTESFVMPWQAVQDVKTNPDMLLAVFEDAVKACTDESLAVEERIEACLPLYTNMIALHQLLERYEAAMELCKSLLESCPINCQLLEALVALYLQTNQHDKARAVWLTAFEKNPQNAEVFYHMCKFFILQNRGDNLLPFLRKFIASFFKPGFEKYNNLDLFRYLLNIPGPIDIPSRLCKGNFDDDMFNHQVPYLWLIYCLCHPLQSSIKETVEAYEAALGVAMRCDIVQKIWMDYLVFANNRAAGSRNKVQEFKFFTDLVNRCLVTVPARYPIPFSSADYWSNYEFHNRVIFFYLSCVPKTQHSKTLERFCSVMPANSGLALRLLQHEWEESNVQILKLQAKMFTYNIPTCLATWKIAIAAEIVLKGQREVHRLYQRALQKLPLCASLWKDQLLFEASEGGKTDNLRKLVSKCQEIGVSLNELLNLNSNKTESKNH

[2] = molecular target: ZFC3H1 (human (endogenous in HeLa)) (UniProt O60293); experiment: as above

Molecule: ZFC3H1 (from UniProt O60293 1-1989)
- binding [1]: no binding

B1: ERCC1 (protein, UniProt P07992 1-297)
chain: MDPGKDKEGVPQPSGPPARKKFVIPLDEDEVPPGVAKPLFRSTQSLPTVDTSAQAAPQTYAEYAISQPLEGAGATCPTGSEPLAGETPNQALKPGAKSNSIIVSPRQRGNPVLKFVRNVPWEFGDVIPDYVLGQSTCALFLSLRYHNLHPDYIHGRLQSLGKNFALRVLLVQVDVKDPQQALKELAKMCILADCTLILAWSPEEAGRYLETYKAYEQKPADLLMEKLEQDFVSRVTECLTTVKSVNKTDSQTLLTTFGSLEQLIAASREDLALCPGLGPQKARRLFDVLHEPFLKVP
- binding [2]: no binding
